Measurements taken from article PMC5718516.
These are yes or no findings as the source states them, for the method shown. Binding seen in cells or lysates may run through a third protein. Some results given as binding are weak or reduced against the parent protein; the word gives no strength.

By UniProt entry, the sequences of proteins in these tests, tags left out.
UniProt Q13887: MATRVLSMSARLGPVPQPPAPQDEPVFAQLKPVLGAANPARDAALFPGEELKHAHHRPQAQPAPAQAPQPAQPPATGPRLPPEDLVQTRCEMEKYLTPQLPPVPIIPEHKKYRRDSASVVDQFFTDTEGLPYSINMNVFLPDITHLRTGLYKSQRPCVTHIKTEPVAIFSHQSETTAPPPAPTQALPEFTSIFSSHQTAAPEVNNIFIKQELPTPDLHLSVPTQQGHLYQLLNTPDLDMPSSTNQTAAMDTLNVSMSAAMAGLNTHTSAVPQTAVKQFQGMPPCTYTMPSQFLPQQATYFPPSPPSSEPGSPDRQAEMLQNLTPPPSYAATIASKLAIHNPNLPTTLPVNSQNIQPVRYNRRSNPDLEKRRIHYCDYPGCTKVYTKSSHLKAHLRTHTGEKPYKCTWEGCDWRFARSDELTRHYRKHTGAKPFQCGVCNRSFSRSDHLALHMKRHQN
UniProt P01106: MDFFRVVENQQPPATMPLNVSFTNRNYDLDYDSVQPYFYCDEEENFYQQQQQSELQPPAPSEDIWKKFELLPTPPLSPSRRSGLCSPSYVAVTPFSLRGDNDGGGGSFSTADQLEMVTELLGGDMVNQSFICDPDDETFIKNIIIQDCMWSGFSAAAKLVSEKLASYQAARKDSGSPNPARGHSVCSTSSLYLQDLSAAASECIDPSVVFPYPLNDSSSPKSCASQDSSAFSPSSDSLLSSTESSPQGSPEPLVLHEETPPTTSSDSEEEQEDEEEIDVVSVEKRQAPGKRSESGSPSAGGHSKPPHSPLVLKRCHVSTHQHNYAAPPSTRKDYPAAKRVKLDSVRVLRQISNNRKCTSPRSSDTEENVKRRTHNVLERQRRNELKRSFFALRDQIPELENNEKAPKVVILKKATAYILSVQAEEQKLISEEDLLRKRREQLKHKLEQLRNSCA

Target: Krüppel-like factor 5 (klf5), HEK293 cells (human (endogenous in HEK293)) (UniProt Q13887)
Assay: co-IP; HEK293 cell extracts; immunoprecipitation with antibody to klf5, immunoblot with antibody to c-Myc; cells treated with 20 μM RSV for 12, 24, 48 h, or cultured in high glucose (25 mmol/L) without or with LY294002 (2 h) or RSV (20 μM, 24 h)

Substance: c-Myc, HEK293 cells (from UniProt P01106 1-454)
- binding: binds
